Results from paper doi:10.64898/2025.12.26.696629.

Tested on: ArnR (Corynebacterium glutamicum)
Assay: EMSA
Settings: 50 nM DNA

GTTGCCTAATTAAATACGGAAAACCCCGTTGAAAAACATGCGG (double strand) [PnarK 43-bp]
binding result: binds

Construct, isoform or probe ends are uncertain for at least one entry. At least one verdict was read from the data and is not stated in words by the source.
